# ± gives the standard deviation of the averaged measurements. This is a selection; strong and weak results do not stand in their true shares.
# By UniProt entry, the sequences of proteins in these tests, tags left out. Where a name states a change or a piece, a line headed by the entry shows the natural chain unless it says otherwise.
# UniProt Q9BQA1, whole entry: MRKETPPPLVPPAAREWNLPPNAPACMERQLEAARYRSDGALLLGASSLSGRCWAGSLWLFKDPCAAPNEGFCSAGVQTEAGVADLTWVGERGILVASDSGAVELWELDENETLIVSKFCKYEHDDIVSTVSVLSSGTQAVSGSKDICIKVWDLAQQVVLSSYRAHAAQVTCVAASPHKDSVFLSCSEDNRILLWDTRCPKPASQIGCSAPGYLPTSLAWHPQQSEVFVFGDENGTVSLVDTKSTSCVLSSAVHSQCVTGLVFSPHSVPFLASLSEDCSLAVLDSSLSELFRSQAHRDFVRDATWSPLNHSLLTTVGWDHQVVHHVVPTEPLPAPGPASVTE
# UniProt Q9BTU6: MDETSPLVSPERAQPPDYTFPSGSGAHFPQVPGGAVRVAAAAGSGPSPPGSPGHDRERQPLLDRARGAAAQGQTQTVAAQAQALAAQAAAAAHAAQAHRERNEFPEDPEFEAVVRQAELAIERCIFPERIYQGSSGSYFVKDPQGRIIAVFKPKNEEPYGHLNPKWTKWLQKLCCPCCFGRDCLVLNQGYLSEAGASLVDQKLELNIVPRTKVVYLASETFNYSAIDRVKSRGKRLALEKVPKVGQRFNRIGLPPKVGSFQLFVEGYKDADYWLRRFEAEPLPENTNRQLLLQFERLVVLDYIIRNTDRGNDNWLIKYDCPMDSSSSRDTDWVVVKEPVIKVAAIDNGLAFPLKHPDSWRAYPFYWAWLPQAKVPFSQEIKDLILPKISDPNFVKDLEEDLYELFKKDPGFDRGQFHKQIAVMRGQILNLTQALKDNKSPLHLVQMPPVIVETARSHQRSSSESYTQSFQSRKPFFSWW
# UniProt Q9BV20: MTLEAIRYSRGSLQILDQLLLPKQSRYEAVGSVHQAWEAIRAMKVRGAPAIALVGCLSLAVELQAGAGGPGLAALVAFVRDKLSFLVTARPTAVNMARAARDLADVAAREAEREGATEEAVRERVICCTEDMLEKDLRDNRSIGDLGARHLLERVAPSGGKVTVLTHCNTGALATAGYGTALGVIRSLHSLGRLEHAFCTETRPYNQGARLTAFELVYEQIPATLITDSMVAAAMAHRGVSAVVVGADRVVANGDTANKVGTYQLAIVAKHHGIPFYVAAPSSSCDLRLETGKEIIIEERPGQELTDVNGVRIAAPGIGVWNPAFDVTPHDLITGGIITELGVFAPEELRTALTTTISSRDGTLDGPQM
# UniProt Q9BX68: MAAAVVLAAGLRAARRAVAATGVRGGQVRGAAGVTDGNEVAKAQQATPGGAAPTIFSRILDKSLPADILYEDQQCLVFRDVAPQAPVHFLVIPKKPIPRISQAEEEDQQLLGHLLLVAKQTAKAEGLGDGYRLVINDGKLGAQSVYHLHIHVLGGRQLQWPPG
# UniProt Q9BTE1, whole entry: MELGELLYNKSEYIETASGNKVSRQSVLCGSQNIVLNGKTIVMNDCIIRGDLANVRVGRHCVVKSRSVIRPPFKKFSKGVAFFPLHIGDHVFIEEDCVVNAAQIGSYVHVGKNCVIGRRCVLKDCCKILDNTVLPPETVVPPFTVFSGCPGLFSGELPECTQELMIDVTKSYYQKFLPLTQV
# UniProt Q9BPY3: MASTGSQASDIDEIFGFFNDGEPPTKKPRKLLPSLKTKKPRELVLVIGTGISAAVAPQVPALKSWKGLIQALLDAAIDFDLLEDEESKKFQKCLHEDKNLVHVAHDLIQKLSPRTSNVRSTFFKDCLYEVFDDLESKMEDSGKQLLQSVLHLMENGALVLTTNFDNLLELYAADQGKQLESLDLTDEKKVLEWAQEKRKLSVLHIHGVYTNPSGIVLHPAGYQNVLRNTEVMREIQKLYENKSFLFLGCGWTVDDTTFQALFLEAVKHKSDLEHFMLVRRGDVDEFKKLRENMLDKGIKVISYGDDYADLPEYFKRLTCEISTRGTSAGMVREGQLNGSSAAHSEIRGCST
# UniProt Q9BTY7: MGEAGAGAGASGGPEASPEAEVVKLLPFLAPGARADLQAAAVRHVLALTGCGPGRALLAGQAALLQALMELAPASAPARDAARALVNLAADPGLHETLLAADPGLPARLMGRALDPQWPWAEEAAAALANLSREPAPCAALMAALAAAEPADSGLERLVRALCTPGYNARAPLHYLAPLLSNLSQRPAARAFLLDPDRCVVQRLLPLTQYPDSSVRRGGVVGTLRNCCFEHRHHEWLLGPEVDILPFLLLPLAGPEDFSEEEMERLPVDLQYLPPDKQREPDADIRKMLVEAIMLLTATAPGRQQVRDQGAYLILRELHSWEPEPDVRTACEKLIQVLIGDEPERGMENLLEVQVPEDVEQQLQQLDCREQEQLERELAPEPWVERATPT
# UniProt Q9BW27: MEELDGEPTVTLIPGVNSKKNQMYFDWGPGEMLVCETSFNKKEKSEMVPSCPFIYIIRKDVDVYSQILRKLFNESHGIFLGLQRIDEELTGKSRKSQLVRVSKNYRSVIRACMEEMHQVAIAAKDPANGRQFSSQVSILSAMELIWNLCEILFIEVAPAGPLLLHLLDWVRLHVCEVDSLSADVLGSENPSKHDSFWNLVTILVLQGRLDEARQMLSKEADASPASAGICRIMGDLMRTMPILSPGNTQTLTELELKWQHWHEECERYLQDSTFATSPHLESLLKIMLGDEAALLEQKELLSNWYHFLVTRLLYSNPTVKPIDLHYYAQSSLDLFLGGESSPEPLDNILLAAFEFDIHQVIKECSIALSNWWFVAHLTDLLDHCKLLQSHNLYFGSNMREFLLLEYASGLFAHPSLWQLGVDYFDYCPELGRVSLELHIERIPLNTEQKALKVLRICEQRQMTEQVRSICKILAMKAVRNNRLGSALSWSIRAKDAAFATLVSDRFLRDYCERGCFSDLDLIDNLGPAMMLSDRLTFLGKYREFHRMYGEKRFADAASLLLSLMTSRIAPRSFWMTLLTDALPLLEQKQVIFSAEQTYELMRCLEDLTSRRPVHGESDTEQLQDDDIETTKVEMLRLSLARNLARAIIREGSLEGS
# UniProt Q9BUB5: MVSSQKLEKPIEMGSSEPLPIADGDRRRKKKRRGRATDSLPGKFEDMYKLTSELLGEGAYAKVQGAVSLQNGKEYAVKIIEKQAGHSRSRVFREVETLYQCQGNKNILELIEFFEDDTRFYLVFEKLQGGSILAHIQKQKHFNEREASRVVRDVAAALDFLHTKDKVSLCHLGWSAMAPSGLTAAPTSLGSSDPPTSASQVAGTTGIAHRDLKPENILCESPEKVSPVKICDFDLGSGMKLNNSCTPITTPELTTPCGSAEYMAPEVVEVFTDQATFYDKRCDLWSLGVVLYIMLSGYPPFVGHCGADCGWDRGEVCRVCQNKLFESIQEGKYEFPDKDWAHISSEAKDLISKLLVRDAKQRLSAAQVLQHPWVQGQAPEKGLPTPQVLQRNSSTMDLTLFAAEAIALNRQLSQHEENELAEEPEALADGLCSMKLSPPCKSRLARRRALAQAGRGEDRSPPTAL
# UniProt Q96SB8: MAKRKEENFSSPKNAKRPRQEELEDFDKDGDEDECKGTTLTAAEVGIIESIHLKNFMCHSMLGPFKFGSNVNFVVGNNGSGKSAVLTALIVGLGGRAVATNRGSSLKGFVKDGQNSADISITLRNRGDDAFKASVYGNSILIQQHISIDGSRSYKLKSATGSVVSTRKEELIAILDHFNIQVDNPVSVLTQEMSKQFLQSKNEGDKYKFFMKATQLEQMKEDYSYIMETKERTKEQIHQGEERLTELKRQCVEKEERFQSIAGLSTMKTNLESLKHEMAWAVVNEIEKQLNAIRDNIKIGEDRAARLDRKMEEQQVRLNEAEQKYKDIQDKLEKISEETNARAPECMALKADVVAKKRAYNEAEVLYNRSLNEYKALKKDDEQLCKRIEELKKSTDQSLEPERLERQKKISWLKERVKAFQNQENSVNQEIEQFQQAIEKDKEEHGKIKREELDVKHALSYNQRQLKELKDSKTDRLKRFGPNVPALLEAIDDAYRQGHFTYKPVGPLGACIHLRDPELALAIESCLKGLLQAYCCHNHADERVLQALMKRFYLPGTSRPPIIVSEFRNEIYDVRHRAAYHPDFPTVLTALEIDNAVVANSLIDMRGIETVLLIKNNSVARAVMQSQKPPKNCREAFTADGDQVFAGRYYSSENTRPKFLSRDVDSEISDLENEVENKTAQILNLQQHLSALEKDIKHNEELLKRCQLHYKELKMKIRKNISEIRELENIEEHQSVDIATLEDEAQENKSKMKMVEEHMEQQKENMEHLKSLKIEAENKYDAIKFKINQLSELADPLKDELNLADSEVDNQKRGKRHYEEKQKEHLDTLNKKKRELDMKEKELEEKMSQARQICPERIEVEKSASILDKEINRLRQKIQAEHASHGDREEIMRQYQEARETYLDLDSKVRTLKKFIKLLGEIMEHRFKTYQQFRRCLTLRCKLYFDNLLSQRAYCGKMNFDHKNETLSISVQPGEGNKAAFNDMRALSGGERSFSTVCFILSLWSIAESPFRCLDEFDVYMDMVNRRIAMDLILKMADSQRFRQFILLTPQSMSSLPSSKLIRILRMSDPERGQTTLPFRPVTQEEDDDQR
# UniProt Q99470: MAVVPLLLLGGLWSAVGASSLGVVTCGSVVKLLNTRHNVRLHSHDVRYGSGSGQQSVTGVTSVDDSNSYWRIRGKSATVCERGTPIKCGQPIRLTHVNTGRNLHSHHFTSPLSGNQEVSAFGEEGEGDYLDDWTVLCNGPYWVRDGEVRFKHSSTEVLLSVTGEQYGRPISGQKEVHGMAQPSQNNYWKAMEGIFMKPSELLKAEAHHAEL
# UniProt Q96RS0: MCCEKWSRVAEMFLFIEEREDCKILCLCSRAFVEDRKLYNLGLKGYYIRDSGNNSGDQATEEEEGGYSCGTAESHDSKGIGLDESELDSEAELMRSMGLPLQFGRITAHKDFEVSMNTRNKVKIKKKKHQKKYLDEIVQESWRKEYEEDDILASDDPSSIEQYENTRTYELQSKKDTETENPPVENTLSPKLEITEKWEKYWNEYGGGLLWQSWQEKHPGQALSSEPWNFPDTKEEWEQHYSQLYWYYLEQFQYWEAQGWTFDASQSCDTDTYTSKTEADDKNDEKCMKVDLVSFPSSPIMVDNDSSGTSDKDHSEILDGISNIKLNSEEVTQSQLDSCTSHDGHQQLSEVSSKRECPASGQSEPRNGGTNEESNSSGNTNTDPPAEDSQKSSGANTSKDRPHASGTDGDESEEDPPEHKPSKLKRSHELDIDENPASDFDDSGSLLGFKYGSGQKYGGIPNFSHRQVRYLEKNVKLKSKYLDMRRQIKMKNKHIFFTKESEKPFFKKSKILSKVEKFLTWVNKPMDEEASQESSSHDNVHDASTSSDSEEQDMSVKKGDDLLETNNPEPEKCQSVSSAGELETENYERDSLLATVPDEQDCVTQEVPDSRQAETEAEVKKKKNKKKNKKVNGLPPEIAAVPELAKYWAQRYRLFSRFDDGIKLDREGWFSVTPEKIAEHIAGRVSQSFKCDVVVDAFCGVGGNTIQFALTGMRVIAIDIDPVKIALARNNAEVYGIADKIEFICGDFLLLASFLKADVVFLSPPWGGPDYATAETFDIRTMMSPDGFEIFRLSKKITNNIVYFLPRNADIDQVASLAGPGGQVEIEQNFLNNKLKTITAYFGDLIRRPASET
# UniProt Q9BR61: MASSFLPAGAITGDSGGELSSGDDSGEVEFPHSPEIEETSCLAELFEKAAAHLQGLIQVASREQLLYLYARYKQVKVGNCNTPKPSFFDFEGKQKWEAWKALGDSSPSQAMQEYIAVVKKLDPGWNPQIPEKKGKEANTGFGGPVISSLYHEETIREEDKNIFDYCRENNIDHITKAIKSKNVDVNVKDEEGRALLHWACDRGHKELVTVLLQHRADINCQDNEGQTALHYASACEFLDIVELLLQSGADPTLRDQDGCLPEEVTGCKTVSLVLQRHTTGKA
# UniProt Q9BTT0: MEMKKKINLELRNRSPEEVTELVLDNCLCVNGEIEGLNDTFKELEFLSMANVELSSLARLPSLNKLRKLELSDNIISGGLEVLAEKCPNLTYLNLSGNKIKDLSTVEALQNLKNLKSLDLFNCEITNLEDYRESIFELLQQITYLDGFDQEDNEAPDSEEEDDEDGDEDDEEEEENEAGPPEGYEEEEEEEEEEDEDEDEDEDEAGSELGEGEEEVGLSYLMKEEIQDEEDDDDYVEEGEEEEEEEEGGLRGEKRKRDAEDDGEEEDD
# UniProt Q99598: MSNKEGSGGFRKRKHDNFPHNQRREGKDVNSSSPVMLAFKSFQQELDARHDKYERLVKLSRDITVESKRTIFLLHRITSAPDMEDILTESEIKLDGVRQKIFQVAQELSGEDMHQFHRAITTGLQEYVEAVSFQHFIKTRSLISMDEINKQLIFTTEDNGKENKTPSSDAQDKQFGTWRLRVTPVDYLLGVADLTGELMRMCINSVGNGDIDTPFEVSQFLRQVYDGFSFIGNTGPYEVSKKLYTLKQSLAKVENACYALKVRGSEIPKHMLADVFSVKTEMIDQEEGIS
# Compound: Nc1ncnc2c1ncn2[C@@H]1O[C@H](COP(=O)(O)OP(=O)(O)NP(=O)(O)O)[C@@H](O)[C@H]1O [adenylyl imidodiphosphate]
# Test: NP40-soluble protein abundance relative to vehicle (solubility fold change) (ratio); higher = more soluble protein in presence of AMP-PNP
# Settings: concentration: 1mM
# Summary of the method: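 Crude Jurkat lysate, prepared by Dounce homogenisation, was exposed to eight concentrations from 0.1 to 10 mM for 10 min at room temperature and then 3 min at 37 °C. Solubilisation used 0.8% NP40 with benzonase for 60 min at 4 °C, followed by ultracentrifugation and TMT labelling of the supernatant for LC-MS/MS. After vsn normalisation of intensities, each value is the fold change against the detergent-processed vehicle within each replicate, across three independent experiments.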
row,Target,NP40-soluble protein abundance
1,UBAC1 (UniProt Q9BSL1),0.965 ± 0.0098
2,WDR77 (UniProt Q9BQA1),0.966 ± 0.025
3,PI4K2A (UniProt Q9BTU6),0.983 ± 0.022
4,UniProt Q96SK2 and related entries,0.99 ± 0.05
5,UniProt Q99767-2|Q99767,0.989 ± 0.021
6,UniProt Q99719 and related entries,1.069 ± 0.0045
7,MRI1 (UniProt Q9BV20),0.9999 ± 0.0086
8,MRPL32 (UniProt Q9BYC8),0.983 ± 0.051
9,HINT2 (UniProt Q9BX68),1.02 ± 0.015
10,UniProt Q9BRR9-2|Q9BRR9-4|Q9BRR9-5|R4GN15,0.939 ± 0.033
11,DCTN5 (UniProt Q9BTE1),0.955 ± 0.016

# Same assay, conditions: concentration: 2mM
row,Target,NP40-soluble protein abundance
1,UniProt Q9BSH4,1.01 ± 0.044
2,UniProt Q9BPY3 and related entries,1.01 ± 0.027
3,UniProt Q9BTY7,0.988 ± 0.032
4,NUP85 (UniProt Q9BW27),0.89 ± 0.056
5,UniProt Q96RU2-2,0.9943 ± 0.0032
6,UniProt Q9BUB5 and related entries,1.07 ± 0.026
7,SMC6 (UniProt Q96SB8),1.06 ± 0.022
8,SDF2 (UniProt Q99470),0.977 ± 0.056
9,CDC5L (UniProt Q99459),1.09 ± 0.075
10,GPATCH1 (UniProt Q9BRR8),1.02 ± 0.029
11,UniProt Q96RS0 and related entries,1.01 ± 0.019
12,ACBD6 (UniProt Q9BR61),1.07 ± 0.061
13,UniProt Q9BTT0 and related entries,1.06 ± 0.084
14,UniProt Q9BTD8 and related entries,1.07 ± 0.08
15,UniProt Q9BXS6 and related entries,0.979 ± 0.017
16,TSNAX (UniProt Q99598),0.997 ± 0.052

# Fetched one by one from the list above:
row,Target,NP40-soluble protein abundance
15,UniProt Q9BXS6 and related entries,0.979 ± 0.017
10,GPATCH1 (UniProt Q9BRR8),1.02 ± 0.029

# From the supplement of paper PMC6411743
